{
  "sequences": {"note": "Protein sequences, listed by entry. Tags and fused reporters are not part of them.", "UniProt P25694": "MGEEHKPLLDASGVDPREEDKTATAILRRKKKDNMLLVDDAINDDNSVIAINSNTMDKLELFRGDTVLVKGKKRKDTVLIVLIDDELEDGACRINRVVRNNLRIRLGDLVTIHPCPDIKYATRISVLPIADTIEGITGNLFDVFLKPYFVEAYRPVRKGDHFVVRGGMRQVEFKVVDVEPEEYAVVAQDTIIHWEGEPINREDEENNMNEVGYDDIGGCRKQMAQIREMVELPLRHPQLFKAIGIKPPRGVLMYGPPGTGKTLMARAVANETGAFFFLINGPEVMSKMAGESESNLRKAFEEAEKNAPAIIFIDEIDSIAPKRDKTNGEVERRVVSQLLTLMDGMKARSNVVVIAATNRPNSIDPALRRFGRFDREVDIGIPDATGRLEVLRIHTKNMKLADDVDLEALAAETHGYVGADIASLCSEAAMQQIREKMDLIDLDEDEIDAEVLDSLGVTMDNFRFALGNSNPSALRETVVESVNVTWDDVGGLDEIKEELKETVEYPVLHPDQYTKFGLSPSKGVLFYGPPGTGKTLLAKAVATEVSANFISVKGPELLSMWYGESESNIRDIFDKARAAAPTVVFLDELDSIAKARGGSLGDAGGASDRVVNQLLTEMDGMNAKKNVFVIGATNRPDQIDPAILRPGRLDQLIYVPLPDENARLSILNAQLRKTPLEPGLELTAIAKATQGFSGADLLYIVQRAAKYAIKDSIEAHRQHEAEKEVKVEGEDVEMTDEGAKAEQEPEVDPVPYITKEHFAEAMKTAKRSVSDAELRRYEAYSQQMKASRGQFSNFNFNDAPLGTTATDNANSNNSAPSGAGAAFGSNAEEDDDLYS"},
  "source": "paper PMC3796546",
  "target": "T1, 3xHA-Irc20 (a.a. 584–1238) (S. cerevisiae) (UniProt Q06554)",
  "T1 sequence": "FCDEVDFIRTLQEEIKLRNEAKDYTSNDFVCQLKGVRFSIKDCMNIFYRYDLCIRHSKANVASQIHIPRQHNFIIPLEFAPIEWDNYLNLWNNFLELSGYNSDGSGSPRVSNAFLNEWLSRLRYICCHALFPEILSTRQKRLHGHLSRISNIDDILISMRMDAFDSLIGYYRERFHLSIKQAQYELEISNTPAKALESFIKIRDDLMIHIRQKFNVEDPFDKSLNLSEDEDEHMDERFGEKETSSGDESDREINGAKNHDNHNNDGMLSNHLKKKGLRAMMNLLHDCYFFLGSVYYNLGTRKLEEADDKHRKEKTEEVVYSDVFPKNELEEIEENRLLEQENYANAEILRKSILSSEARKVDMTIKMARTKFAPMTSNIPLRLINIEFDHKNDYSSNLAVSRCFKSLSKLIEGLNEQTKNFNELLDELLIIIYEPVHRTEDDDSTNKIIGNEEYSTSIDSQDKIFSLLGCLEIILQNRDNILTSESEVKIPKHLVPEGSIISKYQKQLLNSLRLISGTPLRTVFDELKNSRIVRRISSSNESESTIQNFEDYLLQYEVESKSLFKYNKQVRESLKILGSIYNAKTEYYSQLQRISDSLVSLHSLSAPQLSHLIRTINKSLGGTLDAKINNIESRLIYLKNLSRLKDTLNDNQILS",
  "test": "co-IP; yeast crude extract in RNP buffer (0.1 M HEPES pH 7.4, 100 mM NaCl, 0.1% NP-40) on anti-HA agarose beads, 4°C, 90 minutes; HA-Irc20 derivatives precipitated, Cdc48–3xMyc detected by anti-MYC western blot",
  "note": "No constants are given. Whether binding was seen depends on the method and setting. In cells and extracts the contact can be indirect. Some binding calls cover weakened binding; strength is not graded here.",
  "data": [
    {"substance": "Cdc48–3xMyc (from UniProt P25694 1-835)", "values": [
      {"measurement": "binding", "result": "binds"}
    ]}
  ]
}
